# Test: GC-MS headspace release profile of perfume in shampoo, 1/100 dilution in water
# Format: physicochemical
# Details: Tropical Fruit Perfume
# Method: Experimental Procedure: Individual odorant to be tested was added to 20 g of shampoo formulation (see formula below in Table 4) at 0.1%.
# A 10 gram sample of formulation and fragrance was added to an empty 1000 ml pyrex beaker. This beaker was then filled with 1000 ml of 120 F tap water. Beaker with diluted shampoo sample was then immediately placed into a semi-enclosed plexiglass chamber.
# Headspace Sampling: Once beaker was placed into chamber a Carboxan SPME field fiber was held at the top-side opening of the chamber over the beaker containing the sample. […] […] Top of plexiglass chamber was held open for entire 5 minutes of headspace sampling.
structure (smiles),measurement,setting,value
CCCCCCCC1CCC(=O)O1 (centres unmarked) [GAMMA UNDECALACTONE],GC Abundance,40 seconds,4000
same,GC Abundance,50 seconds,7000

# Source: US7517840B2, “Optimized perfumery for rinse-off products” (Givaudan Fragrances Corporation, priority 2005, dated 2009)
